For at least one compound, name, drawing or mass did not settle the structure.
Assays:
[1] = tested on: Human CD34+ bone marrow cells; experiment: In vitro myeloid differentiation assay; type: cell-based; conditions: continuous exposure, 0.5 mM
Method: Human CD34+ bone marrow cells were seeded in stem cell factor, Fms-like tyrosine kinase 3 ligand (F1t3L) and granulocyte colony-stimulating factor (G-CSF), followed by 6 days with media plus G-CSF. Compound 1 […] was added continuously or on a 5-of-7-day (5/7 d) schedule. After 14 days, myeloid maturation stages were measured by CD34, CD33, and CD11b flow cytometry.

[2] = tested on: patients with relapsed or refractory DLBCL; experiment: Clinical study: response (International Workshop criteria for NHL), by schedule and biomarker; type: in vivo, human; conditions: 4 mg 21/28 d DLBCL-2 cohort, 3 patients
Method: Sample Analysis • Aiolos was measured by flow cytometry on samples of whole blood drawn at 0 hours (pre-dose) and at 1.5 and 5 hours post-dose on cycle 1, day 1 • Archival or screening formalin-fixed paraffin-embedded (FFPE) tissues were stained for MYC and BCL2 expression6 on a Bond-Max automated slide stainer (Leica Microsystems, Buffalo Grove, Ill.) • Pathology review was performed on a hematoxylin and eosin stained slides to identify the area of DLBCL • RNA extraction and NanoString nCounter Analysis System lymphoma subtyping test (Seattle, Wash.) were performed as reported previously7 on core needle and excisional biopsy samples • For lymphocyte phenotyping, whole blood was drawn pre-dose (baseline) and 1.5 hours post-dose on cycle 1 day 15, cycle 1 day 22, cycle 2 day 15, and cycle 2 day 22 • Memory T cells ([…]) were measured by flow cytometry.

SMILES: Cc1nc2cccc(N)c2c(=O)n1C1CCC(=O)NC1=O (centres unmarked) [Compound 1, 3-(5-amino-2-methyl-4-oxo-4H-quinazolin-3-yl)-piperidine-2,6-dione]
- myeloid maturation [1]: reversible myeloid maturation arrest
- responses [2]: no responses

Reference: US10159675B2, “Cycling therapy using 3-(5-amino-2-methyl-4-oxo-4H-quinazolin-3-yl)-piperidine-2,6-dione” (Celgene Corporation, priority 2015, dated 2018)
